Paper PMC9355967

Chains of the proteins cited; added tags and fusions are not shown.
UniProt Q9QZQ1: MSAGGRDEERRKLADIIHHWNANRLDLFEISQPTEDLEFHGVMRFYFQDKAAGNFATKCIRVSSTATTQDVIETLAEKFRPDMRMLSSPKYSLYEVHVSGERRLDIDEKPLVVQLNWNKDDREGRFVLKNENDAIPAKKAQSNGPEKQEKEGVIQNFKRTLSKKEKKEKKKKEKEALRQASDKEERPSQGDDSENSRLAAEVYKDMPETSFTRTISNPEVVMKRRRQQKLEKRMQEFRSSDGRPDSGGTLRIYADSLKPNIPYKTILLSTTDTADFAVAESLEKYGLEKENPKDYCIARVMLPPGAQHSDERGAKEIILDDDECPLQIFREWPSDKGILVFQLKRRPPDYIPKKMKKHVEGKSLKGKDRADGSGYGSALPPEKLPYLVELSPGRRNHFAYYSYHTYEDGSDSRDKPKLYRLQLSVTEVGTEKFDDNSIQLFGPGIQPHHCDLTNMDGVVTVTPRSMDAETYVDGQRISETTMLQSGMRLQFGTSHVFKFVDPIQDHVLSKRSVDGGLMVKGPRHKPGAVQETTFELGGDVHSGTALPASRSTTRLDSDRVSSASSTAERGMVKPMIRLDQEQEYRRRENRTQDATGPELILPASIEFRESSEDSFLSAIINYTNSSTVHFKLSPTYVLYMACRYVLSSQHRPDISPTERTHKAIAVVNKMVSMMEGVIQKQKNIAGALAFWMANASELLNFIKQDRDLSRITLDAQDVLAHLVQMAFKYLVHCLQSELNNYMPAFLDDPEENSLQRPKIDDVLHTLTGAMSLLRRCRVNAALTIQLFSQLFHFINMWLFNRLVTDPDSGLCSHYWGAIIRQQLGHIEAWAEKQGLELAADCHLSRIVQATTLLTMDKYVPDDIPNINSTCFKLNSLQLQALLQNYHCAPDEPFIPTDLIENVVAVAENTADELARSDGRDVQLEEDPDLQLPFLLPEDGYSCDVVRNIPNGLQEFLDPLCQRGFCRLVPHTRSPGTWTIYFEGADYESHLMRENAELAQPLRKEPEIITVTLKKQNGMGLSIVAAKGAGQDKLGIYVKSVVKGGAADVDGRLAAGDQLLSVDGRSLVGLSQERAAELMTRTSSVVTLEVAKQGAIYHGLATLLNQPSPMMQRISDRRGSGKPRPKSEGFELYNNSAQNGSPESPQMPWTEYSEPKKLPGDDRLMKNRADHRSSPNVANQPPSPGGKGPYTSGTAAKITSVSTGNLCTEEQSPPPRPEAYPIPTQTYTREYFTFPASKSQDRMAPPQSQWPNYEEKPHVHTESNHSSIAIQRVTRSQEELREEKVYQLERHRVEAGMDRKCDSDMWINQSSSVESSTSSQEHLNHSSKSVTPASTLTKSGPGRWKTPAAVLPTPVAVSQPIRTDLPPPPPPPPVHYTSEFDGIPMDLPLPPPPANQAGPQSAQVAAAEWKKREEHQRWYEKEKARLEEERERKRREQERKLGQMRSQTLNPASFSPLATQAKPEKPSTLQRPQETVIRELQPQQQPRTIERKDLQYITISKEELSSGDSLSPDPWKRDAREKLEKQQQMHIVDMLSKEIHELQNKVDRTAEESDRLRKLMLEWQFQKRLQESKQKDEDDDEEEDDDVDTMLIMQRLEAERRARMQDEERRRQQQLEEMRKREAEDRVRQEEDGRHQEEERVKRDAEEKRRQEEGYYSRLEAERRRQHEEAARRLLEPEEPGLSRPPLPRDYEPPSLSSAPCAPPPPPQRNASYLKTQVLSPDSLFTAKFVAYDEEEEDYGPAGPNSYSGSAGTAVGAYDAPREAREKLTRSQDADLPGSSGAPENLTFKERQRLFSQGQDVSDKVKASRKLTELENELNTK
UniProt Q8TDM6: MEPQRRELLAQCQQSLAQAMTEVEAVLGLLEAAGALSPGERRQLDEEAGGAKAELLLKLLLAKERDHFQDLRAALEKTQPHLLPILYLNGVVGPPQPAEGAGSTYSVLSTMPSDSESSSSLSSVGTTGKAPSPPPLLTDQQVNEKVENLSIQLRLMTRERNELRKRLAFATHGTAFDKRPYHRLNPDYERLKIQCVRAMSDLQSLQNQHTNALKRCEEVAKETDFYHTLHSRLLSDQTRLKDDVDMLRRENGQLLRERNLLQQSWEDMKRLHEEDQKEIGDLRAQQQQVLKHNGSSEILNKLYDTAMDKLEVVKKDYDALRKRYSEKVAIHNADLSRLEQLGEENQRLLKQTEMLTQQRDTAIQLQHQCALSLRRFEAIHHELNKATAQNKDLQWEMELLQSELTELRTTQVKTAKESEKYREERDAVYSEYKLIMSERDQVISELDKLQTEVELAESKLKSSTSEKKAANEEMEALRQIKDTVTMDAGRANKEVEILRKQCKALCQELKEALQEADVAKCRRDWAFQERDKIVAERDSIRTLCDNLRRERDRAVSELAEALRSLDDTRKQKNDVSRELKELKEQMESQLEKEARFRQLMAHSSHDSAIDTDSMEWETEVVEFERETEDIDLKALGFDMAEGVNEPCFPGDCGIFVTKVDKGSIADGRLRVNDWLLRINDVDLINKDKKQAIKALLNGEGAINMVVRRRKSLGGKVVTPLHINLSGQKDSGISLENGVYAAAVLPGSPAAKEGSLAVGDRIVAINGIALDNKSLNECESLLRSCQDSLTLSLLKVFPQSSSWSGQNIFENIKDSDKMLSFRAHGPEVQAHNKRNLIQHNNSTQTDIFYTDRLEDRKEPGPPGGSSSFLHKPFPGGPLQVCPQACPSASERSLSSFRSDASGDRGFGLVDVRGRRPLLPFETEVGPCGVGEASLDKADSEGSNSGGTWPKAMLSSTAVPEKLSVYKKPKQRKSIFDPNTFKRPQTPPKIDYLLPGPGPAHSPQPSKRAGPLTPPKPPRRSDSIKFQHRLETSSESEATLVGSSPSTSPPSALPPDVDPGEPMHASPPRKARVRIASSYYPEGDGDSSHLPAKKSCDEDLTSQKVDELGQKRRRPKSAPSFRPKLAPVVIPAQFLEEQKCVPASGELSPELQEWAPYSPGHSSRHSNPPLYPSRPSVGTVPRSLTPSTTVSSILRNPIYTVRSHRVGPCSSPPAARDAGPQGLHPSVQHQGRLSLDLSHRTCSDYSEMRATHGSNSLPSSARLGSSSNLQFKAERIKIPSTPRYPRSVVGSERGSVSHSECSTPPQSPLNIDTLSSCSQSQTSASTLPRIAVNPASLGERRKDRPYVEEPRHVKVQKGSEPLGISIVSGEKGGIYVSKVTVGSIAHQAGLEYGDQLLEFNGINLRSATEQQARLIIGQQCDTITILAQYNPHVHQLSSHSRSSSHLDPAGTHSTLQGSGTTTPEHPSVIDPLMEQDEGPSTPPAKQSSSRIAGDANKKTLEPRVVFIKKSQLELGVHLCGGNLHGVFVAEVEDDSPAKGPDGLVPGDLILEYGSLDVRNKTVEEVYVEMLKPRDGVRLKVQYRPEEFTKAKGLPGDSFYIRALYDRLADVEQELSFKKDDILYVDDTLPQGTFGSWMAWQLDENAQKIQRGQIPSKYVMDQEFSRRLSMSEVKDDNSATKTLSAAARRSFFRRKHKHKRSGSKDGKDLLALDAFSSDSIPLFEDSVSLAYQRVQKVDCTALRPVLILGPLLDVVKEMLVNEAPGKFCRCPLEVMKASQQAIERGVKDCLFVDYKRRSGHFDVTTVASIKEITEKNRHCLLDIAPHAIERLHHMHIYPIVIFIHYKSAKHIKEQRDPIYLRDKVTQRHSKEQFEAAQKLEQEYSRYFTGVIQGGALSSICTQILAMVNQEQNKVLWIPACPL
UniProt Q14160: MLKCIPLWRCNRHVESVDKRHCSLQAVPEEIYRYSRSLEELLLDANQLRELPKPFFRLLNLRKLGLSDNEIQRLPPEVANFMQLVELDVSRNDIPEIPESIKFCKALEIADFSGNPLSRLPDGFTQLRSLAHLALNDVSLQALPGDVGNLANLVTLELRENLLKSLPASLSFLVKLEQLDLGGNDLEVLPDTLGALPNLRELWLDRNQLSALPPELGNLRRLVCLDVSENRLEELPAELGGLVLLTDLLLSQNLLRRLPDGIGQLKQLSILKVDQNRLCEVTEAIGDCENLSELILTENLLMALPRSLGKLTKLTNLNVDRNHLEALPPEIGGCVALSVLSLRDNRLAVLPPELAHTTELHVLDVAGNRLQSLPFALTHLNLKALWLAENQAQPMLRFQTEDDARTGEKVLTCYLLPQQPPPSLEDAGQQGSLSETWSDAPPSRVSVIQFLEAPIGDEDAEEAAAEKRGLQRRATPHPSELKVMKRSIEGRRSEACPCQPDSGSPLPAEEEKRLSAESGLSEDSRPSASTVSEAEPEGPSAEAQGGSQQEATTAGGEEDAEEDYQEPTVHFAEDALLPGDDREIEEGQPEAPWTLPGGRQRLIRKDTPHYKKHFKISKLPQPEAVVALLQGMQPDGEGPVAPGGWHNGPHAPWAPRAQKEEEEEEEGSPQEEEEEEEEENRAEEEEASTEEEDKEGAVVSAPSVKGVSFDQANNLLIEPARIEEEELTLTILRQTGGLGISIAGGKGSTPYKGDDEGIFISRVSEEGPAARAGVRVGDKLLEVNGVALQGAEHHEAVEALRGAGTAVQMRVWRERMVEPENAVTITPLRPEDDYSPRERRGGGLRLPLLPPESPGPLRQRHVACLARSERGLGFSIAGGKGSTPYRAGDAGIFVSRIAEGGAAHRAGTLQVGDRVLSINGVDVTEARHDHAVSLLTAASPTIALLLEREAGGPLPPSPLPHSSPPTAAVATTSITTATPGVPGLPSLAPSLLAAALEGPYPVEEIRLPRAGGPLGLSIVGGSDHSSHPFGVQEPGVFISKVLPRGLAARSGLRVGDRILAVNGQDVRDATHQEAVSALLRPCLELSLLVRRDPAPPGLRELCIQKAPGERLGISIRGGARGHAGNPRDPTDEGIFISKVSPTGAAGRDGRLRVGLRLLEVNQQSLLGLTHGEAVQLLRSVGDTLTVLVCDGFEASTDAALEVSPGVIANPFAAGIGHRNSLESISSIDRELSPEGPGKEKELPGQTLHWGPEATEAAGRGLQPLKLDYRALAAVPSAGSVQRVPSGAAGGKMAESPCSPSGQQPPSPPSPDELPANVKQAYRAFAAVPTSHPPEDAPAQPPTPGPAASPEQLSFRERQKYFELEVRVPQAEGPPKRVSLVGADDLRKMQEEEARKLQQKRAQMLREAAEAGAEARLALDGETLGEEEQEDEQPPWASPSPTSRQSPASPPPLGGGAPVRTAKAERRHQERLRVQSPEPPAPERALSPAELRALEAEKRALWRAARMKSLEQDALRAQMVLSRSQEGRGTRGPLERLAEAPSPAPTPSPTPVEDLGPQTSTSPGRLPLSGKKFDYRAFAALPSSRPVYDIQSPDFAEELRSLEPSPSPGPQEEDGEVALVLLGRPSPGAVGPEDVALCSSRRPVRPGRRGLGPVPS

Molecular target: BirA*/FLAG-tagged AFDN iso1 (l-AFDN) (mouse) (UniProt Q9QZQ1)
Assay: proximity labelling; BioID in HeLa Flp-In T-REx cells with BirA*/FLAG-AFDN baits; 24 h with 1 μg/ml tetracycline and 50 µM biotin; streptavidin-sepharose purification, mass spectrometry, SAINTexpress FDR ≤ 0.01

| binding | Substance |
| --- | --- |
| binds | Discs Large Homolog 5 (DLG5), BioID prey (from UniProt Q8TDM6 1-1919) |
| binds | endogenous SCRIB of HeLa cells (BioID prey) (from UniProt Q14160 1-1655) |

Results are given in words; binding and its absence hold for the method and conditions named. Binding seen in cells or lysates may run through a third protein. These calls come from enrichment with a bait or labelling near it, and not all partners need be listed.
